Consider one molecule from PMC3832373.

Chains of the proteins cited; added tags and fusions are not shown.
UniProt O97758: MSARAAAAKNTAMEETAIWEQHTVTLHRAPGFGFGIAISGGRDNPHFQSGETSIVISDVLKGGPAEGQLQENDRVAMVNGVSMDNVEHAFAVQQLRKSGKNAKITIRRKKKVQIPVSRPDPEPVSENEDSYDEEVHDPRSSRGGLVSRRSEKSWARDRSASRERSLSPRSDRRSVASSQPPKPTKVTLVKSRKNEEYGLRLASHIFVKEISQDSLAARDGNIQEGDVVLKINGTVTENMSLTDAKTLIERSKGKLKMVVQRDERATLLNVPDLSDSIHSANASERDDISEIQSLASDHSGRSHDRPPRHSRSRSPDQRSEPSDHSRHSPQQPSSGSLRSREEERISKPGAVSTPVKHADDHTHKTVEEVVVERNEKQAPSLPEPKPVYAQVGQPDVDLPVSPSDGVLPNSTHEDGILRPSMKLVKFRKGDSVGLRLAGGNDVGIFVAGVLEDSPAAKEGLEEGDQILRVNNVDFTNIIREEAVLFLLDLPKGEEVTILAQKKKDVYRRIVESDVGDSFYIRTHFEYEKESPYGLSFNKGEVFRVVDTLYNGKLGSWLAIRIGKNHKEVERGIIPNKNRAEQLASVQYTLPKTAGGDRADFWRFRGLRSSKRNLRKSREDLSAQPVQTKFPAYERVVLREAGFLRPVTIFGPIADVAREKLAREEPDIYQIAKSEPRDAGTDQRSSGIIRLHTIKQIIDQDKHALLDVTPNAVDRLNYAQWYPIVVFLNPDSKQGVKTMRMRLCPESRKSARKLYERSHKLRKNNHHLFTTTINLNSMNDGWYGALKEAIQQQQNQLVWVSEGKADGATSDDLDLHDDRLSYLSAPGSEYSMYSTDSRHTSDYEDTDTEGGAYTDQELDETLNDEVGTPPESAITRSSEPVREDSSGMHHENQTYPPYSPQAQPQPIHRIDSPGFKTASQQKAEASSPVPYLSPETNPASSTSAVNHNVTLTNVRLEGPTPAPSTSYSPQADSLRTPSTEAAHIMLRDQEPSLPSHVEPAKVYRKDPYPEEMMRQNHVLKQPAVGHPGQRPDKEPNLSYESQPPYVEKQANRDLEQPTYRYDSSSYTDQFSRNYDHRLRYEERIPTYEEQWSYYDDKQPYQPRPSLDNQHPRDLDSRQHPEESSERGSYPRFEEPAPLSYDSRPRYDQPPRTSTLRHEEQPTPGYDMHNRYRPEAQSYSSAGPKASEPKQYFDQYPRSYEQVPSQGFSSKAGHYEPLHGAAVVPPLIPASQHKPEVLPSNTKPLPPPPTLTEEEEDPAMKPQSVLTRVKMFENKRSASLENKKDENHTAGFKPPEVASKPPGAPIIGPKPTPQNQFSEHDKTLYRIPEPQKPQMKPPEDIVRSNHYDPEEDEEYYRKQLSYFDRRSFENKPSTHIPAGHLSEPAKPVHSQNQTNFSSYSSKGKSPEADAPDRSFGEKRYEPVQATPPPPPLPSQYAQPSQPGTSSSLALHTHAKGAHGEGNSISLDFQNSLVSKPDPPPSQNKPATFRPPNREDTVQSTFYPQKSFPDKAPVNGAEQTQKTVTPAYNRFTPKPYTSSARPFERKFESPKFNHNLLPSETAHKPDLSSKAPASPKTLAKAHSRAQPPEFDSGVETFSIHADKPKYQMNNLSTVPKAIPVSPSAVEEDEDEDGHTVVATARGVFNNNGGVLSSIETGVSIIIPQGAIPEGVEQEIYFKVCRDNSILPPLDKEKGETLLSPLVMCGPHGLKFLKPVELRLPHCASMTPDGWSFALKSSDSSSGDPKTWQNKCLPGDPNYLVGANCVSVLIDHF

For experiment [1], the target named is zonula occludens-1 (dog (endogenous in MDCK)) (UniProt O97758). The experiment in a line: condition: only lysed with 1% SDS, without cross-linker; co-sedimentation; control MDCK monolayer without dithiobis(succinimidyl propionate) treatment, lysed in cosedimentation buffer containing 1% SDS; sucrose gradient centrifugation; fractions immunoblotted.
For experiment [2] the target is unchanged. The experiment in a line: co-sedimentation; MDCK monolayers (ethanol control or 300 µM capsaicin, 1 h) cross-linked with 100 µg/ml dithiobis(succinimidyl propionate), lysed in 0.5% Nonidet P-40, 0.25% Triton X-100; velocity centrifugation on a discontinuous 5-25% sucrose gradient, 200,000×g, 18 h, 4°C; fractions immunoblotted.
Experiment [3] has as its target claudin-1 (dog (endogenous in MDCK)). Described as above.

These are yes or no findings as the source states them, for the method shown. Binding seen in cells or lysates may run through a third protein. Some results given as binding are weak or reduced against the parent protein; the word gives no strength.

B1: occludin (protein, UniProt Q28269 1-521)
chain: MSSRPFESPPPYRPDEFKPNHYAPSNDVYGGDMHVRPMLSQPAYSFYPEDEILHFYKWTSPPGVIRILSMLVIVMCIAIFGCVASTLAWDRGYGTGLMGGSIGYPYGSGFGSYGTGYGYGFGYGYGYGGYTDPRAAKGFLLAMVAFCFIAALVIFVTSVIRSDISRTRRYYLTVIILSAFLGVMMFIATIVYIMGVNPTAQASGSLYSSQIYAMCNQFYASTATGLYMDQYLYHYCVVDPQEAIAIVLGFMVIVAFALIIFFAVKTRRKMDRYDKSNILWDKEHIYDEQPPNVEEWVKNVSAGTQDMPPPPSDYVERVDSPMAYSSNGKVNDKRLYPESSYKSTPVPEVVQELPATSPADDFRQPRYSSSGHLEPPSKRAPSKGRTGRPKRLEQDHYETDYTTGGESCDELEEDWIREYPPITSDQQRQLYKRNFDTGLQEYKSLQAELDEINKELSRLDKELDDYREESEEYMAAADEYNRLKQVKGSPDYKNKRNYCKQLKSKLSHIKKMVGDYDRQKT
Consider B1, for which the results for the binding result in experiment [1], in experiment [2] and in experiment [3] were “no binding”, “binds” and “binds”, respectively.
